Measured values from paper PMC9371714.
These are yes or no findings as the source states them, for the method shown. Binding seen in cells or lysates may run through a third protein. Here binding means that the protein was enriched with, or labelled near, the bait; the list need not be complete. Where a sequence is shown, tags or fusion partners need not be part of it.

Target: biotinylated JMJD6(81-96) peptide (human) (UniProt Q6NYC1)
Assay: affinity purification with mass spectrometry; biotinylated JMJD6(81-96) peptide on streptavidin beads, incubated with lysate of wild-type or JMJD6-defective HeLa cells overnight at 4 °C; eluted proteins propionylated, trypsin, LC-MSMS; only the target purified

Row | binding | Molecule
1 | binds | FACT (facilitates chromatin transcription) complex subunit protein SPT16 (from UniProt Q9Y5B9 1-1047)
2 | binds | LUC7L2 (Luc7-like 2 pre-mRNA splicing factor) (protein, UniProt Q9Y383 1-392) MSAQAQMRAMLDQLMGTSRDGDTTRQRIKFSDDRVCKSHLLNCCPHDVLSGTRMDLGECLKVHDLALRADYEIASKEQDFFFELDAMDHLQSFIADCDRRTEVAKKRLAETQEEISAEVAAKAERVHELNEEIGKLLAKVEQLGAEGNVEESQKVMDEVEKARAKKREAEEVYRNSMPASSFQQQKLRVCEVCSAYLGLHDNDRRLADHFGGKLHLGFIEIREKLEELKRVVAEKQEKRNQERLKRREEREREEREKLRRSRSHSKNPKRSRSREHRRHRSRSMSRERKRRTRSKSREKRHRHRSRSSSRSRSRSHQRSRHSSRDRSRERSKRRSSKERFRDQDLASCDRDRSSRDRSPRDRDRKDKKRSYESANGRSEDRRSSEEREAGEI
